Results deposited as PubChem BioAssay AID504774 (Drosophila RNAi Screening Center, 2011)
In all, the deposit lists about 23,000 reagents; this is a random part of those that have a named target and a result. 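Values are quantile-normalised luminescence on an arbitrary scale; higher means more cells surviving MMS.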 A plus sign joins genes that one reagent is predicted to hit.

Screen: 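Knock-downs that shift viability of MMS-exposed cells relative to untreated ones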 (primary screen)
Cells: Drosophila Kc167 cells
Reagents: long dsRNA against Drosophila genes, about 0.25 µg dsRNA per well
Duration: about 6 days: 3 days knock-down, then 3 days with or without MMS
Treatment: methyl methanesulphonate 0.004% (w/v) for 3 days after knock-down
Read-out: 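Viability in wells given MMS, read as ATP luminescence, normalised by quantiles plate by plate and averaged across replicates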
Reading the numbers: mean viability with MMS and viability with MMS: higher = more surviving cells after MMS

gene,DRSC id,mean viability with MMS,"viability with MMS, replicate 1","viability with MMS, replicate 2"
CG4465,DRSC15584,3.57e6,4.01e6,4.08e6
alt,DRSC15315,3.81e6,4.28e6,4.24e6
CG17618 (retired record) + CG45049,DRSC16163,3.74e6,4.17e6,4.30e6
CG17618 (retired record) + CG45049,DRSC22054,2.56e6,3.68e6,3.71e6
CG17618 (retired record) + CG45049,DRSC23175,3.61e6,4.09e6,4.11e6
Paf-AHalpha,DRSC20267,3.51e6,4.01e6,3.94e6
Rab2,DRSC05017,3.57e6,4.00e6,3.98e6
Smyd4-3,DRSC07041,3.73e6,4.31e6,4.15e6
CG7886,DRSC16333,3.53e6,4.11e6,3.90e6
Efhc1.2,DRSC06027,3.62e6,4.22e6,4.01e6
RpS28b,DRSC18258,3.08e6,3.37e6,3.50e6
rho-7,DRSC07304,3.69e6,4.02e6,4.03e6
CG3955,DRSC06859,3.39e6,3.81e6,3.83e6
CG10621,DRSC02078,3.63e6,4.14e6,4.09e6
tum,DRSC07575,3.55e6,3.88e6,4.05e6
Hexo2,DRSC18671,3.44e6,3.90e6,3.91e6
CG14247,DRSC14742,3.62e6,4.15e6,4.06e6
CG12814,DRSC14552,3.70e6,4.05e6,4.36e6
CG12814,DRSC14553,3.58e6,3.96e6,4.13e6
bmm,DRSC10502,3.91e6,4.27e6,4.45e6
CG42457 (retired record) + cpo,DRSC13273,3.63e6,4.17e6,4.04e6
CG42457 (retired record) + cpo,DRSC14503,2.95e6,3.62e6,3.59e6
CG42457 (retired record) + cpo,DRSC15327,2.83e6,3.57e6,3.57e6
CG42457 (retired record) + cpo,DRSC16926,3.11e6,3.63e6,3.66e6
CG42457 (retired record) + cpo,DRSC23006,3.47e6,4.07e6,3.84e6
TwdlJ,DRSC15812,3.57e6,4.04e6,4.07e6
Lcp65Ag3,DRSC10345,3.84e6,4.05e6,4.13e6
CG3529,DRSC10369,3.48e6,3.87e6,4.01e6
Jig,DRSC14974,3.55e6,3.87e6,4.19e6
cid,DRSC05429,3.59e6,3.99e6,4.11e6
cid,DRSC07592,3.62e6,4.14e6,4.02e6
CG9636,DRSC16529,3.73e6,4.27e6,4.21e6
Chro,DRSC11630,3.19e6,3.64e6,3.64e6
SelG,DRSC19808,3.57e6,3.83e6,4.06e6
ato,DRSC16904,3.34e6,3.83e6,3.79e6
mRpS11,DRSC15732,3.76e6,4.18e6,4.35e6
CG13962,DRSC02304,3.41e6,3.88e6,3.81e6
ash2,DRSC16902,3.43e6,3.93e6,3.85e6
CG3638,DRSC18533,3.35e6,3.85e6,3.74e6
RpL14,DRSC11269,3.15e6,3.55e6,3.55e6
RpL9,DRSC03418,3.01e6,3.56e6,3.58e6
Oxp,DRSC06712,3.64e6,4.18e6,4.03e6
Spn42De,DRSC05011,3.76e6,4.23e6,4.12e6
CG8531,DRSC07209,3.55e6,3.94e6,4.13e6
twz,DRSC04069,3.52e6,4.00e6,3.98e6
Msp300,DRSC00854,3.33e6,3.85e6,3.72e6
Msp300,DRSC00856,3.65e6,3.98e6,4.30e6
Msp300,DRSC00857,3.39e6,3.88e6,3.85e6
Msp300,DRSC00858,3.27e6,3.69e6,3.70e6
Msp300,DRSC02360,3.64e6,4.13e6,4.08e6
Msp300,DRSC03369,3.56e6,3.99e6,4.07e6
Msp300,DRSC03370,3.67e6,4.04e6,4.22e6
CG33775,DRSC05353,3.65e6,4.04e6,4.14e6
CG3213,DRSC00576,3.57e6,3.63e6,3.66e6
CG12780,DRSC06169,3.52e6,3.93e6,4.05e6
CG33630,DRSC14546,3.49e6,3.97e6,3.97e6
CR42532,DRSC06713,3.46e6,3.90e6,3.74e6
CG7215 + Prx5,DRSC16214,3.45e6,3.94e6,3.89e6
CG7215 + Prx5,DRSC16215,3.51e6,3.98e6,3.98e6
Golgin84,DRSC15269,3.61e6,4.14e6,4.04e6
Tmem131,DRSC07154,3.75e6,4.29e6,4.19e6
pncr003:2L (retired record),DRSC22149,3.39e6,3.82e6,3.96e6
CG30265,DRSC21592,3.65e6,4.08e6,4.17e6
Cpr65Az,DRSC09882,3.60e6,3.92e6,4.27e6
Cpr65Az,DRSC22057,3.71e6,4.15e6,4.16e6
mRpL19,DRSC16367,3.66e6,4.27e6,4.22e6
mRpL19,DRSC21618,3.73e6,4.14e6,4.27e6
Mdh1 (retired record),DRSC02846,3.70e6,4.22e6,4.17e6
